Library screen at single concentrations

Each number is a percent effect as filed.
The controls that fix the scale are not given in the record; negative values are as filed.
The compounds are a random part of those screened.
Two or more numbers in one place are separate tests of the same structure; such repeats can differ widely.

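Whole-cell growth test on Mycobacterium tuberculosis, read after 4 days in a medium based on cholesterol and the lipid DPPC; the read-out is not stated. Concentration: 50 µM. Higher reads as more growth inhibition (inferred: compounds with an IC50 in retests scored well above the rest). Size under these conditions: about 69,000 compounds, about 370 of them at 50% or above in at least one test.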

structure,effect
Cc1ccccc1N1CCN(c2nc(N(C)C)nc3c2CCNC3)CC1,71.18
COc1ccccc1NC(=O)c1ccc(C)n1C,4.367
Cc1ccc(N2Cc3nc(=O)n(C(C)C)n3C2=O)cc1,18.68
Cc1nnc(C2CCN(C(=O)c3ccc4[nH]ccc4c3)CC2)s1,-5.485
CCn1c(O)c(C(C)=O)c2cc(C)ccc21,13.64
COc1ccc(C(=O)NCc2cc(N3CCOCC3)ncn2)o1,-41.81
[H][C@]12CC[C@]([H])(CN(C(=O)C3CCC3)C1)N(S(=O)(=O)c1cccnc1)C2,-14.47
CC(C)c1nc(C2CCCN2CCN2CCCCC2)no1 (stereo not given),-4.73
CCS(=O)(=O)NCCNCc1ccc(Cl)c2cccnc12,-25.63
Cc1noc(C)c1CN(C)C(=O)c1ccc(C(F)(F)F)nc1,4.452
Cc1ccc(-c2nc(CC(=O)N3CCN(c4cnccn4)CC3)cs2)o1,-9.293
Cc1ccc(CNC(=O)N(Cc2ccccc2F)C2CC2)cn1,1.875
Cc1cn[nH]c1C1COCCN1C(=O)c1ccc2c(c1)CCCC2 (stereo not given),7.024 & -2.322
CN1C(=O)C2(CC(=O)Nc3c2cnn3C(C)(C)C)c2c(Cl)cccc21 (stereo not given),-6.678
CC(C)CN1CCC2(CC1)C(=O)Nc1ccc(C(=O)NC(C)C)cc12.O=C(O)C(F)(F)F,13.79
O=C(O)C(F)(F)F.[H][C@@]12COC[C@]1(COc1cccnc1)CN(C(=O)Cc1ccccc1F)C2,-2.346
Cn1cnc2c1CCN(CCCOc1ccc(C#N)cc1)C2,1.904
CC(C)c1noc(C(C)N2CCN(Cc3cccc(C#N)c3)CC2)n1 (stereo not given),-5.791
CC(C)c1nnc2n1CCN(C(=O)c1ccc3c(c1)CCC3)C2,-12.81
COc1ccc(Oc2cccc(C#N)n2)cc1CN1CCCC1,-5.195
Cc1csc(CCCNC(C)CC(=O)Nc2cccc(C)c2C)n1 (stereo not given),15.67
CN(CC1CCCCO1)c1nc(-c2cccnc2)nc2c1CCNC2 (stereo not given),-0.2664
CC(C)Cc1nc(CN2CCC(NC(=O)c3cccs3)CC2)no1,2.819
Cc1cnc(CNc2ncc(C)c(-c3cnn(C)c3)n2)cn1,5.604
[H][C@@]12CN(C(=O)c3ccco3)C[C@]1([H])C(=O)N(Cc1cccc(C)c1)C2,-10.53
Cc1nc2n(n1)CC(Nc1nc(-c3ccccc3)no1)CC2 (stereo not given),22.65
COCCN1CCC(c2nc3ccc(-c4ccccc4)cn3n2)CC1.O=C(O)C(F)(F)F,5.411
Cc1nn2cccnc2c1C(=O)NCc1ccccc1OC1CCC1,5.27
CCS(=O)(=O)N1CCCC(c2nccn2Cc2ccccn2)C1 (stereo not given),8.792
CC(C)S(=O)(=O)c1ccccc1C(=O)NCC1Cc2ccccc2O1 (stereo not given),-1.562 & -1.202
[H][C@@]12CS(=O)(=O)C[C@]1([H])N(Cc1ncc[nH]1)CCN2CC=C(C)C,-4.293
CN1CCN(c2cc(CNCc3cccc4c3OCO4)ccn2)CC1,-4.639
COC(=O)c1cccc2nc([C@H]3CCN(Cc4ccccc4)C3)oc12,6.342
Cc1nc(CN(C)C(=O)C2CCC(=O)N(CCN(C)C)C2)cs1 (stereo not given),-17.36
CCCC(=O)N1CCN(CC(O)COCC)CC1 (stereo not given),-8.229
c1ccc2nc(N3CCOC(Cn4cncn4)C3)cnc2c1 (stereo not given),-9.851
c1cc(-c2cncc(C3CCNCC3)n2)n[nH]1,-1.76
CCC(C)S(=O)(=O)N1CCc2nc(C3CCNCC3)ncc2C1.Cl (stereo not given),2.847
CN1CCN(Cc2cnc3n2CCN(C(=O)c2cscn2)C3)CC1,-24.29
O=S(=O)(C1CC1)N1CCc2ncc(Cn3cccn3)n2CC1,3.762
O[C@H]1[C@H](NCCSc2ccccn2)c2ccccc2C12CCNCC2,6.072
CN(Cc1nnc(C2CC2)n1C)S(=O)(=O)c1ccc(F)c(C#N)c1,4.681
CCOCC1CN(C(=O)[C@H]2CCCO2)Cc2nnn(CC3CC3)c21 (stereo not given in full),-14.55
CC(C)c1nnc2n1CCN(Cc1ccc3c(c1)OCO3)CC2,6.15
CC(=O)N(Cc1ncc(C)o1)C1CCN(CCCc2cnn(C)c2)C1 (stereo not given),-32.71
O=C1CC(NCc2ccccn2)CN1CCc1ccc(F)cc1 (stereo not given),-3.107
Cc1cc(C)c(Cn2cncn2)cc1CN1CCC(CN)C1 (stereo not given),-7.979 & -0.5215
Nc1nc(CCC(=O)N2C[C@H](c3ccccc3)[C@@H](N)C2)cs1,-8.014
Cc1nc(O)c2c(n1)CCN(Cc1cc(C)sc1C)CC2,13.52
O=C(c1cnc2[nH]c(=O)[nH]c(=O)c2c1)N1CCCC1C1CCCCC1 (stereo not given),-26.36
Cc1ncc(C(=O)N2CCC(C(=O)NC3CCCC3)C2)c(C)n1 (stereo not given),-9.342 & -8.902
O=C(O)C(F)(F)F.[H][C@@]12CCN(C(=O)c3cocn3)C[C@]1(COc1ncccc1F)CCO2,-1.888 & 15.07
CCc1cc(C(=O)N[C@@H]2CC[C@@H](N3CCOCC3)[C@@H]2O)no1,3.586
COc1ccc(N2CCN(C(=O)C(C)n3cc(Br)cn3)CC2)cc1 (stereo not given),26.16
CC1CN(c2ccc(NC(=O)Cn3cccn3)cc2)CCO1 (stereo not given),9.678
O=C(O)C(F)(F)F.[H][C@@]12CCN(Cc3cnn(C)c3)[C@]1([H])CC[C@@H](C(=O)Nc1cnccn1)O2,6.947
Cc1ccc(OCCN(C)C(=O)CCCN2CCCC2=O)c(C)c1,-12.43
COc1ncc(C(=O)NCc2ccccc2)cn1,22.9
COc1ccc(CNC(=O)N2CCC(Cc3cnn(C)c3)C2)cc1C (stereo not given),10.03
COc1ncccc1NC(=O)NC1CCCN(c2ncccn2)C1 (stereo not given),-16.47
Cc1cnn(CC(C)NCc2ccccc2OCc2cccnc2)c1 (stereo not given),-9.092
CC(C)Oc1ncccc1CNC(=O)c1cnccn1,-37.47
CCc1ccc(CN2CCC3(CC(C(=O)NCC(C)C)=NO3)C2)o1 (stereo not given),5.634
CC(C)c1noc(C(C)N2CCN(Cc3ccccc3C#N)CC2)n1 (stereo not given),3.147
CCc1cnc(N2CCN(CC(=O)Nc3c(C)n[nH]c3C)CC2)s1,10.19
Cc1cc(NC(=O)CCN2CCn3c(C)nnc3C2)no1,-0.3814
N#CC1(NC(=O)CN2CCc3c(ncn3C3CC3)C2)CCCC1,-23.21
CC(C)N1CCN(C(=O)c2csc3nc(-c4ccc(Cl)cc4)cn23)CC1,23.93
CCN(Cc1cnn(CC)c1)Cc1c(Cl)cncc1Cl,-10.27
O=C(Cn1cnc2cc3c(cc21)OCCCO3)NCCc1ccccc1,0.6301
O=C1NCC(C(=O)Nc2ncc(Cc3ccc(F)cc3F)s2)N1 (stereo not given),-13.27
c1ccc(Cc2noc(CN3CCCC3Cn3cccn3)n2)cc1 (stereo not given),9.36
Cc1cc(C(=O)N2CCCC2)ccc1NS(C)(=O)=O,-9.865 & 1.531
O=C(c1cnc(NCCC2CCCO2)c(Cl)c1)N1CCOCC1 (stereo not given),16.57 & -11.81

The last 4 entries again:

structure,effect
O=C1NCC(C(=O)Nc2ncc(Cc3ccc(F)cc3F)s2)N1 (stereo not given),-13.27
c1ccc(Cc2noc(CN3CCCC3Cn3cccn3)n2)cc1 (stereo not given),9.36
Cc1cc(C(=O)N2CCCC2)ccc1NS(C)(=O)=O,-9.865 & 1.531
O=C(c1cnc(NCCC2CCCO2)c(Cl)c1)N1CCOCC1 (stereo not given),16.57 & -11.81

The values are deposited in ChEMBL (CHEMBL3988442, “University of Dundee, Small-Polar-MMV Screening Library” (2021)).